Reference: PubChem BioAssay AID328 (DTP/NCI, 2004)
The list is a part of this screen's results and no random one: it is rich in T/C values a quarter to a half above the control, in often repeated tests (any T/C) and in doses without a T/C. Other doses and runs of a compound stand elsewhere. T/C is the treated group as % of the vehicle group. Some entries give survivors of the animals treated and no T/C: the source holds a T/C of zero for them, seemingly a mark for toxic or unscored doses. Some doses without a T/C left all or most animals alive at the check, yet need not have been tolerated: the source hardly ever lists a survival T/C far under the control, and the zero likely stands for such cases as well. Survivors were counted at the toxicity check, usually on the fifth day, unless a day is given; later deaths do not show. Schedule codes are those of the source, read here as Q, the interval in days (D) or hours (H), X, the number of doses. For survival time, this PubChem deposit counts one and a half times the control or more as active, and values a quarter to a half above the control carry no call in these data; other NCI protocols may use other cut-offs. Some T/C values are followed by the survivors on the day toxicity was checked, most often the fifth; where none is given, no animal had died by that day. Some doses were run more than once; their values stand side by side, smallest first.

System: BDF1 mice, P388 leukemia ip, median survival T/C
Assay: NCI In Vivo Anticancer Drug Screen. Data for tumor model P388 Leukemia (intraperitoneal) in B6D2F1 (BDF1) mice
Details: T/C endpoint: median survival time, higher T/C = longer survival
Summary of the method: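 In tumour-bearing mice, survival after compound treatment is set against the vehicle group and given as a quotient.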

[1] = dose: 50.0 mg/kg/injection, schedule: Q01DX009 (ip), vehicle: saline with Tween-80
[2] = dose: 40.0 mg/kg/injection, schedule: Q01DX009 (ip), vehicle: Klucel (hydroxypropylcellulose) (HPC)
[3] = dose: 100.0 mg/kg/injection, schedule: Q01DX009 (ip), vehicle: saline with Tween-80
[4] = dose: 200.0 mg/kg/injection, schedule: Q01DX009 (ip), vehicle: saline with Tween-80

In the case of CC(=N\O)/C(=N\O)C(=O)c1ccccc1, the survivor count (dose: 200.0 mg/kg/injection, schedule: Q01DX009 (ip), vehicle: other) was 5 of 6 and the survivor count (dose: 400.0 mg/kg/injection, schedule: Q01DX009 (ip), vehicle: other) was 4 of 6.
Nc1ccc(CCCCc2ccccc2)cc1 was tested, and the survivor count (dose: 112.5 mg/kg/injection, schedule: Q04DX003 (ip), vehicle: saline) was 6 of 6, the survivor count (dose: 115.0 mg/kg/injection, schedule: Q01DX009 (ip), vehicle: saline) was 5 of 6 and the survivor count (dose: 170.0 mg/kg/injection, schedule: Q01DX009 (ip), vehicle: saline) was 0 of 6. For the same compound, the survivor count (dose: 225.0 mg/kg/injection, schedule: Q04DX003 (ip), vehicle: saline) was 0 of 6.
For NC(=O)SCC(=O)Nc1ccc2ncccc2c1, the T/C (dose: 200.0 mg/kg/injection, schedule: Q01DX009 (ip), vehicle: saline) was 131 % of control [5 of 6 alive] and the T/C (dose: 300.0 mg/kg/injection, schedule: Q01DX009 (ip), vehicle: saline) was 127 % of control.
For CCCCCCCCCCCCCCCCCC(=O)[O][Sn]([CH2]CCC)([CH2]CCC)[O]C(=O)CCCCCCCCCCCCCCCCC, the T/C (dose: 6.25 mg/kg/injection, schedule: Q04DX003 (ip), vehicle: other) was 129 % of control and the survivor count (dose: 25.0 mg/kg/injection, schedule: Q04DX003 (ip), vehicle: other) was 2 of 6.
With COc1cccc(S(=O)(=O)c2ccc([N+](=O)[O-])c3nonc23)c1 the survivor count [1] was 3 of 7.
With c1ccc2c(c1)C1=NCCN1c1ccccc1-2 the T/C [2] was 125 and 136 % of control [5 of 6 alive], the survivor count (dose: 60.0 mg/kg/injection, schedule: Q01DX009 (ip), vehicle: Klucel (hydroxypropylcellulose) (HPC)) was 0 of 6 and the survivor count (dose: 100.0 mg/kg/injection, schedule: Q04DX003 (ip), vehicle: Klucel (hydroxypropylcellulose) (HPC)) was 0 of 6. The survivor count (dose: 200.0 mg/kg/injection, schedule: Q04DX003 (ip), vehicle: Klucel (hydroxypropylcellulose) (HPC)) was 0 of 6 and the survivor count (dose: 400.0 mg/kg/injection, schedule: Q04DX003 (ip), vehicle: Klucel (hydroxypropylcellulose) (HPC)) was 0 of 6.
N#CCCCCNC(=O)C1CCC(=O)N1 (centres undefined) was tested, and the survivor count (dose: 200.0 mg/kg/injection, schedule: Q04DX003 (ip), vehicle: saline) was 6 of 6.
NC(=O)c1cc([N+](=O)[O-])c(Cl)c([N+](=O)[O-])c1 was tested, and the survivor count (dose: 20.0 mg/kg/injection, schedule: Q01DX009 (ip), vehicle: Klucel (hydroxypropylcellulose) (HPC)) was 6 of 6, the survivor count (dose: 20.0 mg/kg/injection, schedule: Q04DX003 (ip), vehicle: Klucel (hydroxypropylcellulose) (HPC)) was 4 of 6 and the survivor count [2] was 0 of 6.
In the case of O=C1CCCc2ccccc2N1, the survivor count (dose: 100.0 mg/kg/injection, schedule: Q01DX009 (ip), vehicle: Klucel (hydroxypropylcellulose) (HPC)) was 6 of 6.
With O=[n+]1c2ccccc2n([O-])c2ccccc21.[Cl][Cu][Cl] the survivor count (dose: 25.0 mg/kg/injection, schedule: Q04DX003 (ip), vehicle: saline with Tween-80) was 6 of 6.
With O=C(NNC1CCCCC1)c1ccccc1 the survivor count [1] was 6 of 6 and the survivor count [3] was 4 of 6.
OC(c1cc(C23CC4CC(CC(C4)C2)C3)nc2c(Cl)cc(Cl)cc12)C1CCCCN1 (centres undefined) was tested, and the survivor count [3] was 6 of 6 and the survivor count [4] was 2 of 6.
CN(C)CC(C(=O)Cc1ccccc1)c1ccccc1 (centres undefined) was tested, and the survivor count [4] was 0 of 6.
C/C(=N/NC(=O)c1ccccc1)c1ccc(Cl)cc1Cl was tested, and the survivor count [2] was 5 of 6 and the survivor count (dose: 135.0 mg/kg/injection, schedule: Q04DX003 (ip), vehicle: Klucel (hydroxypropylcellulose) (HPC)) was 5 of 6.
